# According to the supplement of paper PMC8728848:
# The list shows a part of the results.
# B1: GS13599A-bth-520-23-520 (Bacteroides thetaiotaomicron) (protein)
# chain: SEDTMDRINKDHDHTTSVASRFILADVITSTAFSNASGDINTYASSYIEYEVGVDNQLYYAEVRENEPSSSSTFNNSWNGIYSSLKNARIIIDQCGEGGRDHGNDVTRGMAEVMAAYNCALIADFFGDAPCSQAALVDEKGSPVYMTPKMDTQQEIYTQIISYLDDAIANLQKEDLADVTEQDFLYAGDADKWLKFAYGLKARYTMRLINRSSNKSADYEKVLDYVSKSFTSADDQAAFDIYDSNNINPFYGFYNSRAGFGASTSLGTKLLAYNDPRANRAFFTPIVDKKRSQVAANDPSLVPAPNGSPDQSTSKYGISAFVYAKTAPTLLMSYHELMFLKAEALCRLNRDAEDALKEAVVAGLLNAENSISIAIKELGSGLNTNSSEVITETSAGKYFDDVVKAKYAANPLQETMIQKYLAMWGASGEATETYNDFRRMKGLNENFITLTNPNNSSKFPLRYPYGNSDTAANPEVKAAYGNGDYVYSEPVWWAGGSR
# Legend:
# Assay in all cases: glycan array binding signal (z-score within array); higher = stronger binding
# Conditions in all cases: glycan notation: IUPAC condensed, linker removed
# [1] = target: Man(a1-3)[Man(a1-6)]Man(a1-6)[Man(a1-3)]Man
# Method in brief: (§1)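 Columns mapping to the same glycan were averaged after glycan names were converted to IUPAC-condensed notation. The data come from 3228 arrays in the Consortium for Functional Glycomics database, limited to those with an available protein sequence. Binding is reported as a within-array Z-score averaged across arrays of one protein sequence and across linkers.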
# [2] = target: Man(a1-3)[Man(a1-6)]Man(a1-6)[Man(a1-3)]Man(b1-4)GlcNAc(b1-4)GlcNAc
# Method in brief: as §1
# [3] = target: Man(a1-3)[Man(a1-6)]Man(b1-4)GlcNAc(b1-4)GlcNAc
# Method in brief: as §1
# [4] = target: Man(a1-3)[Man(a1-6)]Man(b1-4)GlcNAc(b1-4)[Fuc(a1-6)]GlcNAc
# Method in brief: as §1
# Man(a1-6)Man = target: Man(a1-6)Man
# Method in brief: as §1
# Man(b1-4)GlcNAc = target: Man(b1-4)GlcNAc
# Method in brief: as §1
# MurNAc(b1-4)GlcNAc = target: MurNAc(b1-4)GlcNAc
# Method in brief: as §1
# Neu5Ac(a2-3)Gal = target: Neu5Ac(a2-3)Gal
# Method in brief: as §1
# [5] = target: Neu5Ac(a2-3)Gal(b1-3)GalNAc
# Method in brief: as §1
# [6] = target: Neu5Ac(a2-3)Gal(b1-3)GalNAc(b1-3)Gal(a1-4)Gal(b1-4)Glc
# Method in brief: as §1
# [7] = target: Neu5Ac(a2-3)Gal(b1-3)GalNAc(b1-4)[Neu5Ac(a2-3)]Gal(b1-4)Glc
# Method in brief: as §1
# [8] = target: Neu5Ac(a2-3)Gal(b1-3)GalNAc(b1-4)[Neu5Ac(a2-8)Neu5Ac(a2-3)]Gal(b1-4)Glc
# Method in brief: as §1
# [9] = target: Neu5Ac(a2-3)Gal(b1-3)GalNAc6S
# Method in brief: as §1
# [10] = target: Neu5Ac(a2-3)Gal(b1-3)GlcNAc
# Method in brief: as §1
# [11] = target: Neu5Ac(a2-3)Gal(b1-3)GlcNAc(b1-2)Man
# Method in brief: as §1
# [12] = target: Neu5Ac(a2-3)Gal(b1-3)GlcNAc(b1-2)Man(a1-3)[GlcNAc(b1-4)][Neu5Ac(a2-3)Gal(b1-3)GlcNAc(b1-2)Man(a1-6)]Man(b1-4)GlcNAc(b1-4)GlcNAc
# Method in brief: as §1
# [13] = target: Neu5Ac(a2-3)Gal(b1-3)GlcNAc(b1-2)Man(a1-3)[Neu5Ac(a2-3)Gal(b1-3)GlcNAc(b1-2)Man(a1-6)]Man(b1-4)GlcNAc(b1-4)GlcNAc
# Method in brief: as §1
# [14] = target: Neu5Ac(a2-3)Gal(b1-3)GlcNAc(b1-3)Gal(b1-3)GlcNAc
# Method in brief: as §1
# [15] = target: Neu5Ac(a2-3)Gal(b1-3)GlcNAc(b1-3)Gal(b1-4)GlcNAc
# Method in brief: as §1
# [16] = target: Neu5Ac(a2-3)Gal(b1-3)GlcNAc(b1-3)GalNAc
# Method in brief: as §1
# [17] = target: Neu5Ac(a2-3)Gal(b1-3)GlcNAc(b1-4)Gal(b1-4)Glc
# Method in brief: as §1
# [18] = target: Neu5Ac(a2-3)Gal(b1-3)GlcNAc(b1-6)GalNAc
# Method in brief: as §1
# [19] = target: Neu5Ac(a2-3)Gal(b1-3)GlcNAc6S
# Method in brief: as §1
# [20] = target: Neu5Ac(a2-3)Gal(b1-3)[Fuc(a1-4)]GlcNAc
# Method in brief: as §1
# [21] = target: Neu5Ac(a2-3)Gal(b1-3)[Fuc(a1-4)]GlcNAc(b1-3)Gal(b1-3)[Fuc(a1-4)]GlcNAc
# Method in brief: as §1
# [22] = target: Neu5Ac(a2-3)Gal(b1-3)[Fuc(a1-4)]GlcNAc(b1-3)Gal(b1-4)[Fuc(a1-3)]GlcNAc
# Method in brief: as §1
# [23] = target: Neu5Ac(a2-3)Gal(b1-3)[GlcNAc(b1-6)]GalNAc
# Method in brief: as §1
# [24] = target: Neu5Ac(a2-3)Gal(b1-3)[Neu5Ac(a2-6)]GalNAc
# Method in brief: as §1
# [25] = target: Neu5Ac(a2-3)Gal(b1-3)[Neu5Ac(a2-6)]GlcNAc(b1-3)[Fuc(a1-3)[Gal(b1-4)]GlcNAc(b1-6)]Gal(b1-4)Glc
# Method in brief: as §1
# [26] = target: Neu5Ac(a2-3)Gal(b1-3)]Neu5Ac(a2-3)Gal(b1-4)]GlcNAc
# Method in brief: as §1
# Neu5Ac(a2-3)Gal(b1-4)Glc = target: Neu5Ac(a2-3)Gal(b1-4)Glc
# Method in brief: as §1
# [27] = target: Neu5Ac(a2-3)Gal(b1-4)GlcNAc
# Method in brief: as §1
# [28] = target: Neu5Ac(a2-3)Gal(b1-4)GlcNAc(b1-2)Man
# Method in brief: as §1
# [29] = target: Neu5Ac(a2-3)Gal(b1-4)GlcNAc(b1-2)Man(a1-3)[GlcNAc(b1-4)][Neu5Ac(a2-3)Gal(b1-4)GlcNAc(b1-2)Man(a1-6)]Man(b1-4)GlcNAc(b1-4)GlcNAc
# Method in brief: as §1
# [30] = target: Neu5Ac(a2-3)Gal(b1-4)GlcNAc(b1-2)Man(a1-3)[Neu5Ac(a2-3)Gal(b1-4)GlcNAc(b1-2)Man(a1-6)]Man(b1-4)GlcNAc(b1-4)GlcNAc
# Method in brief: as §1
# [31] = target: Neu5Ac(a2-3)Gal(b1-4)GlcNAc(b1-2)Man(a1-3)[Neu5Ac(a2-3)Gal(b1-4)GlcNAc(b1-2)Man(a1-6)]Man(b1-4)GlcNAc(b1-4)[Fuc(a1-6)]GlcNAc
# Method in brief: as §1
# [32] = target: Neu5Ac(a2-3)Gal(b1-4)GlcNAc(b1-2)Man(a1-3)[Neu5Ac(a2-6)Gal(b1-4)GlcNAc(b1-2)Man(a1-6)]Man(b1-4)GlcNAc(b1-4)GlcNAc
# Method in brief: as §1
# [33] = target: Neu5Ac(a2-3)Gal(b1-4)GlcNAc(b1-2)[Neu5Ac(a2-3)Gal(b1-4)GlcNAc(b1-4)]Man(a1-3)[GlcNAc(b1-4)][Neu5Ac(a2-3)Gal(b1-4)GlcNAc(b1-2)[Neu5Ac(a2-3)Gal(b1-4)GlcNAc(b1-6)]Man(a1-6)]Man(b1-4)GlcNAc(b1-4)GlcNAc
# Method in brief: as §1
binder,measurement,setting,value
B1,glycan array binding signal (z-score),[1],-0.42
same,glycan array binding signal (z-score),[2],0.26
same,glycan array binding signal (z-score),[3],-0.716
same,glycan array binding signal (z-score),[4],0.777
same,glycan array binding signal (z-score),Man(a1-6)Man,1.52
same,glycan array binding signal (z-score),Man(b1-4)GlcNAc,-0.573
same,glycan array binding signal (z-score),MurNAc(b1-4)GlcNAc,0.296
same,glycan array binding signal (z-score),Neu5Ac(a2-3)Gal,-0.216
same,glycan array binding signal (z-score),[5],-0.241
same,glycan array binding signal (z-score),[6],0.392
same,glycan array binding signal (z-score),[7],0.058
same,glycan array binding signal (z-score),[8],-0.697
same,glycan array binding signal (z-score),[9],-0.286
same,glycan array binding signal (z-score),[10],-0.306
same,glycan array binding signal (z-score),[11],1.13
same,glycan array binding signal (z-score),[12],0.566
same,glycan array binding signal (z-score),[13],-1.84
same,glycan array binding signal (z-score),[14],-0.995
same,glycan array binding signal (z-score),[15],-0.817
same,glycan array binding signal (z-score),[16],0.129
same,glycan array binding signal (z-score),[17],-1.26
same,glycan array binding signal (z-score),[18],0.168
same,glycan array binding signal (z-score),[19],-0.748
same,glycan array binding signal (z-score),[20],-0.362
same,glycan array binding signal (z-score),[21],0.538
same,glycan array binding signal (z-score),[22],-0.103
same,glycan array binding signal (z-score),[23],-0.324
same,glycan array binding signal (z-score),[24],0.09
same,glycan array binding signal (z-score),[25],0.593
same,glycan array binding signal (z-score),[26],0.559
same,glycan array binding signal (z-score),Neu5Ac(a2-3)Gal(b1-4)Glc,-0.296
same,glycan array binding signal (z-score),[27],-0.216
same,glycan array binding signal (z-score),[28],-0.52
same,glycan array binding signal (z-score),[29],-1.27
same,glycan array binding signal (z-score),[30],1.04
same,glycan array binding signal (z-score),[31],1.04
same,glycan array binding signal (z-score),[32],1.25
same,glycan array binding signal (z-score),[33],-0.639

# Quoted from the results shown for reference:
binder,measurement,setting,value
B1,glycan array binding signal (z-score),Neu5Ac(a2-3)Gal(b1-4)Glc,-0.296
same,glycan array binding signal (z-score),[27],-0.216
